Measured values as given in article PMC12034769.
Results are given in words; binding and its absence hold for the method and conditions named. For some assays here: Binding seen in cells or lysates may run through a third protein. Some entries that bind do so weakly or less than the wild type. Sequences can lack the tags named with a protein. Values belong to the molecule of their own block, whether it stands above or below them.

Amino acid sequences for entries named in this document (tags omitted). A change or cut given only in a name is not applied to a line headed by its entry. Residues count along the entry.
UniProt P19838: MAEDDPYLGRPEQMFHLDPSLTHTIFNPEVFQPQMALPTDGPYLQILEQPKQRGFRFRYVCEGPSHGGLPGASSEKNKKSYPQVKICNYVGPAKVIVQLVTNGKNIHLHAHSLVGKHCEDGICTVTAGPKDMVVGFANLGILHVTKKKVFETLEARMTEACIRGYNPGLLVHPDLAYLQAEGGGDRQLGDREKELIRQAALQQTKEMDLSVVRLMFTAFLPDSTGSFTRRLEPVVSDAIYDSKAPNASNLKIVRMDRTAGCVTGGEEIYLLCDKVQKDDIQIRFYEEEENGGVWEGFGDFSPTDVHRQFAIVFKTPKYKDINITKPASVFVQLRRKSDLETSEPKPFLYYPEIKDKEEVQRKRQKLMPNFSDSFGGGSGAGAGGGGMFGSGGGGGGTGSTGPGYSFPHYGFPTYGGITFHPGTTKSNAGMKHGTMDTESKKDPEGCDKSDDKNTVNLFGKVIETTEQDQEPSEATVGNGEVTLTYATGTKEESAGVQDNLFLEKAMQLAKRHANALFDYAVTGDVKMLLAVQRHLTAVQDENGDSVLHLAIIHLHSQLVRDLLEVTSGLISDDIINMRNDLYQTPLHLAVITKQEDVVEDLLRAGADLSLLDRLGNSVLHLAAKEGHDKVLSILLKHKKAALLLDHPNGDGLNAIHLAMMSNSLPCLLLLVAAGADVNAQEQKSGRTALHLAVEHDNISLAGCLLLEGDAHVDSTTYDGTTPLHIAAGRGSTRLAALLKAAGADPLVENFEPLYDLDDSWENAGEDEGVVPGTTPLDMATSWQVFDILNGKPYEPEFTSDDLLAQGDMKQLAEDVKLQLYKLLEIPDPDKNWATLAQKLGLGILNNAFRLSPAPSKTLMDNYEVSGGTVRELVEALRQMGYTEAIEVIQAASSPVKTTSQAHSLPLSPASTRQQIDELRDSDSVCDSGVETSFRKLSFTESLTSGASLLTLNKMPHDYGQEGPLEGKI
GST-p50 (1-366aa): residues 1-366 of P19838
UniProt O00629: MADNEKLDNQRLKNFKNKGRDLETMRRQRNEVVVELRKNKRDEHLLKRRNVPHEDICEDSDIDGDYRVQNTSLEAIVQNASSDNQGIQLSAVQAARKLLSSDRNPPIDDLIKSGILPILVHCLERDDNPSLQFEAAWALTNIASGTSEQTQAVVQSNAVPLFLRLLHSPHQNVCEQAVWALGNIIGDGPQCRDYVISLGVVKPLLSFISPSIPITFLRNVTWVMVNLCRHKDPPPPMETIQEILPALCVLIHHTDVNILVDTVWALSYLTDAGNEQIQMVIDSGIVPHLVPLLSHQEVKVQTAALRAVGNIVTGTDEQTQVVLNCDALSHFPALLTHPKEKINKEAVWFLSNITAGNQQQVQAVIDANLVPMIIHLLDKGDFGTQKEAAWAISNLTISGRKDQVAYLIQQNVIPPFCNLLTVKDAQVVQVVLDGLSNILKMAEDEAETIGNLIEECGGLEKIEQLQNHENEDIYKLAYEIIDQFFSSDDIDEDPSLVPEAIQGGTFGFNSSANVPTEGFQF
UniProt P25799, residues 1-431: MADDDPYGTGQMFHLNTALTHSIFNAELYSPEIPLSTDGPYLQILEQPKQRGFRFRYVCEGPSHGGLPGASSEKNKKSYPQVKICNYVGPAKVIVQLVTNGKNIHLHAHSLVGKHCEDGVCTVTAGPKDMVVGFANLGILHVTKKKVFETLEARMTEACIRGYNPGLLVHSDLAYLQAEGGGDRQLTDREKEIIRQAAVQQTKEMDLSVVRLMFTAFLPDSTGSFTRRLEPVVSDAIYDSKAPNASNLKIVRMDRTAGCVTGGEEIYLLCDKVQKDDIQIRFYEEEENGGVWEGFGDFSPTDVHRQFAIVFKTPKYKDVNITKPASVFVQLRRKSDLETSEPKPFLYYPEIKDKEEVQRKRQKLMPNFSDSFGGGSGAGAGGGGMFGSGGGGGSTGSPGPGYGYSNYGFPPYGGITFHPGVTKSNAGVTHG

Experiments:
[1] = target: T1, ACAT1-Flag (human mitochondrial acetyl-CoA acetyltransferase 1, wild type) (human) (UniProt P24752); assay: co-IP; subcellular fractionation, then IP from HCT116 cells stably expressing EV or ACAT1-Flag; blot for importin α3
T1 sequence: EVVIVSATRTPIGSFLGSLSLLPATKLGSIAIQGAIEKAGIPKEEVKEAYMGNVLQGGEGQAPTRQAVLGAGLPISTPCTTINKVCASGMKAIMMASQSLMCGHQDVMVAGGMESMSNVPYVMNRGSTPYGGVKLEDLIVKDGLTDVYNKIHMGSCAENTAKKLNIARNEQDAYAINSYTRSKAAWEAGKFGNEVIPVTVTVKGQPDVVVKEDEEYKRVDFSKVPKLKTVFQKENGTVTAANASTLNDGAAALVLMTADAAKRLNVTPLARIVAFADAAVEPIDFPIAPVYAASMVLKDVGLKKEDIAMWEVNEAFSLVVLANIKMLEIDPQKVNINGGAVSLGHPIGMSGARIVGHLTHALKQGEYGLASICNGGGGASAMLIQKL

ACAT1-Flag S60A (human) = target: T2, ACAT1-Flag S60A (human) (UniProt P24752); assay: co-IP; ACAT1-Flag (WT, S60A or S60E) immunoprecipitated from HCT116 cells stably expressing it; with or without IL18, shPPM1A or U0126; blot for importin α3
T2 sequence: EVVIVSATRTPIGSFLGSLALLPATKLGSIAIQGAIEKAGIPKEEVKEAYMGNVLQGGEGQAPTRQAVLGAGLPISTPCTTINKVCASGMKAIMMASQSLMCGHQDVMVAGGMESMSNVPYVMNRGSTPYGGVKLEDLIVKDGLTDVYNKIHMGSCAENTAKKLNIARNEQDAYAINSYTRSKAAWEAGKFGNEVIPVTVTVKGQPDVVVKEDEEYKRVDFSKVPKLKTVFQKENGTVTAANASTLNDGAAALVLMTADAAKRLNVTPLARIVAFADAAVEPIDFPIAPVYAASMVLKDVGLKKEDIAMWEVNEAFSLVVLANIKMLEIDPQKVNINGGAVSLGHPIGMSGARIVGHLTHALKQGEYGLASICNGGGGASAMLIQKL

[2] = target: T1, ACAT1-Flag (human mitochondrial acetyl-CoA acetyltransferase 1, wild type) (human); assay: as above
ACAT1-Flag S60E (human) = target: T3, ACAT1-Flag S60E (human) (UniProt P24752); assay: as above
T3 sequence: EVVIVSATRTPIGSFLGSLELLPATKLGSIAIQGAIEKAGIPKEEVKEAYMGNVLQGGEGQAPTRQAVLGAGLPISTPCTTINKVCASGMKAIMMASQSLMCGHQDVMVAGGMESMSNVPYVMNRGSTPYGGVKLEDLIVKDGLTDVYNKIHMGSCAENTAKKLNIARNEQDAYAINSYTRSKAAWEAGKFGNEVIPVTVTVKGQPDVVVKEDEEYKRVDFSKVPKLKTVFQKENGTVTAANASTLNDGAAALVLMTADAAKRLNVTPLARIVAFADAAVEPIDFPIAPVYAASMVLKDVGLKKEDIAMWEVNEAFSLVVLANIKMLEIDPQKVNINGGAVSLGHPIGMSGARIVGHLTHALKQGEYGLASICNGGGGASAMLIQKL

[3] = target: T1, ACAT1-Flag (human mitochondrial acetyl-CoA acetyltransferase 1, wild type) (human); assay: co-IP; subcellular fractionation, then IP from HCT116 or CT26 cells stably expressing EV or ACAT1-Flag/Acat1-Flag; cytoplasmic fraction
[4] = target: T1, ACAT1-Flag (human mitochondrial acetyl-CoA acetyltransferase 1, wild type) (human); assay: co-IP; subcellular fractionation, then IP from RKO, HCT116 or CT26 cells stably expressing EV or ACAT1-Flag/Acat1-Flag; binding found in the nuclear fraction
[5] = target: T4, Acat1-Flag (mouse) (mouse) (UniProt Q8QZT1); assay: co-IP; subcellular fractionation, then IP from HCT116 or CT26 cells stably expressing EV or ACAT1-Flag/Acat1-Flag; cytoplasmic fraction
T4 sequence: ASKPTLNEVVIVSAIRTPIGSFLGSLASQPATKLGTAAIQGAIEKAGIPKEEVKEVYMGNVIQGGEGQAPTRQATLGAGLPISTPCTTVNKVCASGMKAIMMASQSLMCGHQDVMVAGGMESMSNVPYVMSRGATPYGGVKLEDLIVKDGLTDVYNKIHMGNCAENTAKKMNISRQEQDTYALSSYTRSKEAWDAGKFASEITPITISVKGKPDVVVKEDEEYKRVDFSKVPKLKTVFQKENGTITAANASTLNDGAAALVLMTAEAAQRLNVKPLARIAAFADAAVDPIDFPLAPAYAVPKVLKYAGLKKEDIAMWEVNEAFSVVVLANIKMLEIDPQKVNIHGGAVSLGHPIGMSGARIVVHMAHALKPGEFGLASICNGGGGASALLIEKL

[6] = target: T4, Acat1-Flag (mouse) (mouse); assay: co-IP; subcellular fractionation, then IP from RKO, HCT116 or CT26 cells stably expressing EV or ACAT1-Flag/Acat1-Flag; binding found in the nuclear fraction
[7] = target: HA-egfp-p50 (1-366aa) (human) (UniProt P19838); assay: co-IP; HA-egfp-p50 (1-366aa) immunoprecipitated from HEK293T cells; blot for ACAT1-Flag
[8] = target: GST-p50 (1-366aa) (human) (UniProt P19838); assay: pull-down; GST pulldown: purified ACAT1-His or ACAT1-Flag on GST or GST-p50 (1-366aa); both purified
[9] = target: T1, ACAT1-Flag (human mitochondrial acetyl-CoA acetyltransferase 1, wild type) (human); assay: proximity ligation; Duolink in situ PLA between endogenous PPM1A/Ppm1a and ACAT1-Flag/Acat1-Flag exogenously expressed in HCT116 and CT26 cells
[10] = target: T4, Acat1-Flag (mouse) (mouse); assay: as above

- binding [1]: binds
- binding (ACAT1-Flag S60A (human)): binds
- binding [2]: binds
- binding (ACAT1-Flag S60E (human)): binds
Molecule: importin α3, endogenous human (from UniProt O00629 1-521)

- binding [4]: binds
Molecule: p50 (NFKB1), endogenous human (from UniProt P19838 1-433)
- binding [3]: no binding (condition: in the cytoplasmic fraction)

- binding [6]: binds
Molecule: p50 (Nfkb1), endogenous mouse (from UniProt P25799 1-431)
- binding [5]: no binding (condition: in the cytoplasmic fraction)

- binding [4]: no binding
Molecule: p105 (NFKB1 precursor), endogenous human (from UniProt P19838 1-968)

- binding [7]: binds
B1: ACAT1-Flag (human mitochondrial acetyl-CoA acetyltransferase 1, wild type) (enzyme, UniProt P24752 41-427)
chain: EVVIVSATRTPIGSFLGSLSLLPATKLGSIAIQGAIEKAGIPKEEVKEAYMGNVLQGGEGQAPTRQAVLGAGLPISTPCTTINKVCASGMKAIMMASQSLMCGHQDVMVAGGMESMSNVPYVMNRGSTPYGGVKLEDLIVKDGLTDVYNKIHMGSCAENTAKKLNIARNEQDAYAINSYTRSKAAWEAGKFGNEVIPVTVTVKGQPDVVVKEDEEYKRVDFSKVPKLKTVFQKENGTVTAANASTLNDGAAALVLMTADAAKRLNVTPLARIVAFADAAVEPIDFPIAPVYAASMVLKDVGLKKEDIAMWEVNEAFSLVVLANIKMLEIDPQKVNINGGAVSLGHPIGMSGARIVGHLTHALKQGEYGLASICNGGGGASAMLIQKL

- binding [8]: binds
B2: purified ACAT1-Flag (enzyme, UniProt P24752 41-427)
chain: EVVIVSATRTPIGSFLGSLSLLPATKLGSIAIQGAIEKAGIPKEEVKEAYMGNVLQGGEGQAPTRQAVLGAGLPISTPCTTINKVCASGMKAIMMASQSLMCGHQDVMVAGGMESMSNVPYVMNRGSTPYGGVKLEDLIVKDGLTDVYNKIHMGSCAENTAKKLNIARNEQDAYAINSYTRSKAAWEAGKFGNEVIPVTVTVKGQPDVVVKEDEEYKRVDFSKVPKLKTVFQKENGTVTAANASTLNDGAAALVLMTADAAKRLNVTPLARIVAFADAAVEPIDFPIAPVYAASMVLKDVGLKKEDIAMWEVNEAFSLVVLANIKMLEIDPQKVNINGGAVSLGHPIGMSGARIVGHLTHALKQGEYGLASICNGGGGASAMLIQKL

- binding [8]: binds
B3: purified ACAT1-His (enzyme, UniProt P24752 41-427)
chain: EVVIVSATRTPIGSFLGSLSLLPATKLGSIAIQGAIEKAGIPKEEVKEAYMGNVLQGGEGQAPTRQAVLGAGLPISTPCTTINKVCASGMKAIMMASQSLMCGHQDVMVAGGMESMSNVPYVMNRGSTPYGGVKLEDLIVKDGLTDVYNKIHMGSCAENTAKKLNIARNEQDAYAINSYTRSKAAWEAGKFGNEVIPVTVTVKGQPDVVVKEDEEYKRVDFSKVPKLKTVFQKENGTVTAANASTLNDGAAALVLMTADAAKRLNVTPLARIVAFADAAVEPIDFPIAPVYAASMVLKDVGLKKEDIAMWEVNEAFSLVVLANIKMLEIDPQKVNINGGAVSLGHPIGMSGARIVGHLTHALKQGEYGLASICNGGGGASAMLIQKL

- binding [9]: binds
B4: protein phosphatase 1A (PPM1A), endogenous human (enzyme, UniProt P35813 1-382)
chain: MGAFLDKPKMEKHNAQGQGNGLRYGLSSMQGWRVEMEDAHTAVIGLPSGLESWSFFAVYDGHAGSQVAKYCCEHLLDHITNNQDFKGSAGAPSVENVKNGIRTGFLEIDEHMRVMSEKKHGADRSGSTAVGVLISPQHTYFINCGDSRGLLCRNRKVHFFTQDHKPSNPLEKERIQNAGGSVMIQRVNGSLAVSRALGDFDYKCVHGKGPTEQLVSPEPEVHDIERSEEDDQFIILACDGIWDVMGNEELCDFVRSRLEVTDDLEKVCNEVVDTCLYKGSRDNMSVILICFPNAPKVSPEAVKKEAELDKYLECRVEEIIKKQGEGVPDLVHVMRTLASENIPSLPPGGELASKRNVIEAVYNRLNPYKNDDTDSTSTDDMW

- binding [10]: binds
B5: Ppm1a, endogenous mouse (enzyme, UniProt P49443 1-382)
chain: MGAFLDKPKMEKHNAQGQGNGLRYGLSSMQGWRVEMEDAHTAVIGLPSGLETWSFFAVYDGHAGSQVAKYCCEHLLDHITNNQDFRGSAGAPSVENVKNGIRTGFLEIDEHMRVMSEKKHGADRSGSTAVGVLISPQHTYFINCGDSRGLLCRNRKVHFFTQDHKPSNPLEKERIQNAGGSVMIQRVNGSLAVSRALGDFDYKCVHGKGPTEQLVSPEPEVHDIERSEEDDQFIILACDGIWDVMGNEELCDFVRSRLEVTDDLEKVCNEVVDTCLYKGSRDNMSVILICFPSAPKVSAEAVKKEAELDKYLESRVEEIIKKQVEGVPDLVHVMRTLASENIPSLPPGGELASKRNVIEAVYNRLNPYKNDDTDSASTDDMW
